# Results published in patent US6660263B2, “Oocydin and methods of use for protection of plants from Oomyocyte pathogens” (HMV Corporation, priority 2000, dated 2003).
# System: Aspergillus fumigatus
# Format: cell-based
smiles,measurement,value
"C[C@@H]1[C@H](O)[C@@H](C)/C=C/C=C/C=C/C=C/C=C/C=C/C=C/[C@H](O[C@@H]2O[C@H](C)[C@@H](O)[C@H](N)[C@@H]2O)C[C@@H]2O[C@](O)(C[C@@H](O)C[C@@H](O)[C@H](O)CC[C@@H](O)C[C@@H](O)CC(=O)O[C@H]1C)C[C@H](O)[C@H]2C(=O)O [amphotericin B, reference compound]",MIC,< 1.0 µg/mL
